According to patent US4093574A, “Somatostatin analogs and intermediates thereto” (Eli Lilly and Company, priority 1977, dated 1978):
Not every detail of the peptide structures is certain; ends, links or a residue may be inferred.

Tests used:
gut motility = experiment: action on gut motility in conscious dogs (intralumenal pressure); format: in vivo; conditions: intravenous infusion over ten minutes
Method: D-Ser^2, D-Trp^8 -somatostatin also was tested for its action on gut motility in conscious dogs. Three dogs having intralumenal catheters placed in the antrum, duodenum, and pylorus were used. Pressure changes in the gut lumen were recorded on a Visicorder using strain gauges and miniature light beam galvanometers. After a steady state control was established, D-Ser^2, D-Trp^8 -somatostatin was infused intravenously over a ten minute period. […] This compared to a minimum effective dose of 0.125-0.25 μg./kg.--10 minutes for somatostatin itself.

growth hormone secretion = experiment: release of growth hormone in sodium pentobarbital-stimulated rats; format: in vivo, male Spraque-Dawley rats; conditions: 50 μg./rat subcutaneously, serum GH at 20 minutes
Method: D-Ser^2, D-Trp^8 -somatostatin also was tested for its activity with respect to the release of growth hormone. The procedure which was employed is carried out using male Spraque-Dawley rats weighing 100-120 grams (Laboratory Supply Company, Indianapolis, Ind.). The test is a modification of the method of P. Brazeau, W. Vale, and R. Guilleman, Endocrinology, 94 184 (1974). In this assay, five groups of eight rats each were employed. Sodium pentobarbital was administered intraperitoneally to all of the rats to stimulate growth hormone secretion. One group served as the control and received only saline. Two of the groups received somatostatin, one at 2 μg./rat, subcutaneously, and the other at 50 μg./rat, subcutaneously. The other two groups received D-Ser^2, D-Trp^8 -somatostatin, one at 2 μg./rat, subcutaneously, and the other at 50 μg./rat, subcutaneously. The serum concentration of growth hormone was measured 20 minutes after simultaneous administration of sodium pentobarbital and test compound. The degree of inhibition of serum growth hormone concentration then was determined with respect to the control group, and the relative activities of D-Ser^2, D-Trp^8 -somatostatin and somatostatin itself were compared. […]

[1] = tested on: glucagon and insulin secretion; experiment: in vivo inhibition of glucagon and insulin secretion upon stimulation with L-alanine; parameters: species or system mongrel dogs; conditions: fasted dogs, intravenous infusion
Method: D-Ser^2, D-Trp^8 -somatostatin was tested for its in vivo activity in inhibiting glucagon and insulin secretion upon stimulation with L-alanine. Normal mongrel dogs of either sex were fasted overnight. Control blood samples were obtained, and then an intravenous infusion of saline, somatostatin, or D-Ser^2, D-Trp^8 -somatostatin was started. After 30 minutes, L-alanine additionally was administered intravenously for a period of 15 minutes. The infusion of saline, somatostatin, or D-Ser^2, D-Trp^8 -somatostatin was continued for 15 minutes after completion of the L-alanine infusion. From the above it was determined that the minimal effective concentration of D-Ser^2, D-Trp^8 -somatostatin is about 25 nanograms/kg./min. whereas the minimal effective concentration of somatostatin is about 100 nanograms/kg./min.

In the case of `C[C@H](N)C(=O)NCC(=O)N[C@H]1CSSC[C@@H](C(=O)O)NC(=O)[C@H](CO)NC(=O)[C@H]([C@@H](C)O)NC(=O)[C@H](Cc2ccccc2)NC(=O)[C@H]([C@@H](C)O)NC(=O)[C@H](CCCCN)NC(=O)[C@H](Cc2c[nH]c3ccccc23)NC(=O)[C@H](Cc2ccccc2)NC(=O)[C@H](Cc2ccccc2)NC(=O)[C@H](CC(N)=O)NC(=O)[C@H](CCCCN)NC1=O` [somatostatin, Somatostatin], the “minimum effective dose required to increase the pyloric pressure and to decrease the duodenum and antrum pressures” value (gut motility) is reported as 0.125-0.25 μg./kg.--10 minutes, the “inhibition of growth hormone secretion over control” value (growth hormone secretion) is reported as 65-80% and the “minimal effective concentration for inhibiting glucagon and insulin secretion” value [1] is reported as “about 100 nanograms/kg./min”.
